Drawing on paper PMC3510033, this text covers binding for four substances.

By UniProt entry, the sequences of proteins in these tests, tags left out. Where a name states a change or a piece, a line headed by the entry shows the natural chain unless it says otherwise.
UniProt P07582: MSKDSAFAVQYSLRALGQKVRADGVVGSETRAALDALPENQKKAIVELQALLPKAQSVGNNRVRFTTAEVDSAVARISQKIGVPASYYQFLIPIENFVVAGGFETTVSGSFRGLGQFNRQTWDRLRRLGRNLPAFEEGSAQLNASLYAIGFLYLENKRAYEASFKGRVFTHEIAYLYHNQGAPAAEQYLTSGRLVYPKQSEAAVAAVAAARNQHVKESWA

Results are given in words; binding and its absence hold for the method and conditions named.

Test in all cases: SEC; size-exclusion column of the purified protein alone; elution compared with the calculated mass; both purified
Assay [1] concerns the target P5ΔV8^V207F (residues 48-220 of Φ6 P5 V207F, V8 protease fragment) (bacteriophage Φ6) (UniProt P07582).
In assay [2] the target is P5ΔV8^wt (residues 48-220 of Φ6 P5, V8 protease fragment) (bacteriophage Φ6) (UniProt P07582).
In assay [3] the target is bacteriophage Φ6 lysin protein P5 with the V207F substitution (P5^V207F) (bacteriophage Φ6) (UniProt P07582).
For assay [4], the target named is bacteriophage Φ6 lysin protein P5, wildtype (P5^wt) (bacteriophage Φ6) (UniProt P07582).

“P5ΔV8^V207F (residues 48-220 of Φ6 P5 V207F, V8 protease fragment) (from UniProt P07582 48-220) (domain or fragment)”: the binding entry in assay [1] is on record as “no binding”. Consider “P5ΔV8^wt (residues 48-220 of Φ6 P5, V8 protease fragment) (from UniProt P07582 48-220) (domain or fragment)”, for which the binding entry in assay [2] is “no binding”. Turning to “bacteriophage Φ6 lysin protein P5 with the V207F substitution (P5^V207F) (from UniProt P07582 1-220) (enzyme)”, the binding entry in assay [3] is “no binding”. In the case of “bacteriophage Φ6 lysin protein P5, wildtype (P5^wt) (from UniProt P07582 1-220) (enzyme)”, the binding entry in assay [4] is “no binding”.
